Laboratory results: paper PMC7987452
No constants are given. Whether binding was seen depends on the method and setting. In cells and extracts the contact can be indirect. Some results given as binding are weak or reduced against the parent protein; the word gives no strength.

Chains of the proteins cited; added tags and fusions are not shown. Residues count along the entry.
UniProt P29994: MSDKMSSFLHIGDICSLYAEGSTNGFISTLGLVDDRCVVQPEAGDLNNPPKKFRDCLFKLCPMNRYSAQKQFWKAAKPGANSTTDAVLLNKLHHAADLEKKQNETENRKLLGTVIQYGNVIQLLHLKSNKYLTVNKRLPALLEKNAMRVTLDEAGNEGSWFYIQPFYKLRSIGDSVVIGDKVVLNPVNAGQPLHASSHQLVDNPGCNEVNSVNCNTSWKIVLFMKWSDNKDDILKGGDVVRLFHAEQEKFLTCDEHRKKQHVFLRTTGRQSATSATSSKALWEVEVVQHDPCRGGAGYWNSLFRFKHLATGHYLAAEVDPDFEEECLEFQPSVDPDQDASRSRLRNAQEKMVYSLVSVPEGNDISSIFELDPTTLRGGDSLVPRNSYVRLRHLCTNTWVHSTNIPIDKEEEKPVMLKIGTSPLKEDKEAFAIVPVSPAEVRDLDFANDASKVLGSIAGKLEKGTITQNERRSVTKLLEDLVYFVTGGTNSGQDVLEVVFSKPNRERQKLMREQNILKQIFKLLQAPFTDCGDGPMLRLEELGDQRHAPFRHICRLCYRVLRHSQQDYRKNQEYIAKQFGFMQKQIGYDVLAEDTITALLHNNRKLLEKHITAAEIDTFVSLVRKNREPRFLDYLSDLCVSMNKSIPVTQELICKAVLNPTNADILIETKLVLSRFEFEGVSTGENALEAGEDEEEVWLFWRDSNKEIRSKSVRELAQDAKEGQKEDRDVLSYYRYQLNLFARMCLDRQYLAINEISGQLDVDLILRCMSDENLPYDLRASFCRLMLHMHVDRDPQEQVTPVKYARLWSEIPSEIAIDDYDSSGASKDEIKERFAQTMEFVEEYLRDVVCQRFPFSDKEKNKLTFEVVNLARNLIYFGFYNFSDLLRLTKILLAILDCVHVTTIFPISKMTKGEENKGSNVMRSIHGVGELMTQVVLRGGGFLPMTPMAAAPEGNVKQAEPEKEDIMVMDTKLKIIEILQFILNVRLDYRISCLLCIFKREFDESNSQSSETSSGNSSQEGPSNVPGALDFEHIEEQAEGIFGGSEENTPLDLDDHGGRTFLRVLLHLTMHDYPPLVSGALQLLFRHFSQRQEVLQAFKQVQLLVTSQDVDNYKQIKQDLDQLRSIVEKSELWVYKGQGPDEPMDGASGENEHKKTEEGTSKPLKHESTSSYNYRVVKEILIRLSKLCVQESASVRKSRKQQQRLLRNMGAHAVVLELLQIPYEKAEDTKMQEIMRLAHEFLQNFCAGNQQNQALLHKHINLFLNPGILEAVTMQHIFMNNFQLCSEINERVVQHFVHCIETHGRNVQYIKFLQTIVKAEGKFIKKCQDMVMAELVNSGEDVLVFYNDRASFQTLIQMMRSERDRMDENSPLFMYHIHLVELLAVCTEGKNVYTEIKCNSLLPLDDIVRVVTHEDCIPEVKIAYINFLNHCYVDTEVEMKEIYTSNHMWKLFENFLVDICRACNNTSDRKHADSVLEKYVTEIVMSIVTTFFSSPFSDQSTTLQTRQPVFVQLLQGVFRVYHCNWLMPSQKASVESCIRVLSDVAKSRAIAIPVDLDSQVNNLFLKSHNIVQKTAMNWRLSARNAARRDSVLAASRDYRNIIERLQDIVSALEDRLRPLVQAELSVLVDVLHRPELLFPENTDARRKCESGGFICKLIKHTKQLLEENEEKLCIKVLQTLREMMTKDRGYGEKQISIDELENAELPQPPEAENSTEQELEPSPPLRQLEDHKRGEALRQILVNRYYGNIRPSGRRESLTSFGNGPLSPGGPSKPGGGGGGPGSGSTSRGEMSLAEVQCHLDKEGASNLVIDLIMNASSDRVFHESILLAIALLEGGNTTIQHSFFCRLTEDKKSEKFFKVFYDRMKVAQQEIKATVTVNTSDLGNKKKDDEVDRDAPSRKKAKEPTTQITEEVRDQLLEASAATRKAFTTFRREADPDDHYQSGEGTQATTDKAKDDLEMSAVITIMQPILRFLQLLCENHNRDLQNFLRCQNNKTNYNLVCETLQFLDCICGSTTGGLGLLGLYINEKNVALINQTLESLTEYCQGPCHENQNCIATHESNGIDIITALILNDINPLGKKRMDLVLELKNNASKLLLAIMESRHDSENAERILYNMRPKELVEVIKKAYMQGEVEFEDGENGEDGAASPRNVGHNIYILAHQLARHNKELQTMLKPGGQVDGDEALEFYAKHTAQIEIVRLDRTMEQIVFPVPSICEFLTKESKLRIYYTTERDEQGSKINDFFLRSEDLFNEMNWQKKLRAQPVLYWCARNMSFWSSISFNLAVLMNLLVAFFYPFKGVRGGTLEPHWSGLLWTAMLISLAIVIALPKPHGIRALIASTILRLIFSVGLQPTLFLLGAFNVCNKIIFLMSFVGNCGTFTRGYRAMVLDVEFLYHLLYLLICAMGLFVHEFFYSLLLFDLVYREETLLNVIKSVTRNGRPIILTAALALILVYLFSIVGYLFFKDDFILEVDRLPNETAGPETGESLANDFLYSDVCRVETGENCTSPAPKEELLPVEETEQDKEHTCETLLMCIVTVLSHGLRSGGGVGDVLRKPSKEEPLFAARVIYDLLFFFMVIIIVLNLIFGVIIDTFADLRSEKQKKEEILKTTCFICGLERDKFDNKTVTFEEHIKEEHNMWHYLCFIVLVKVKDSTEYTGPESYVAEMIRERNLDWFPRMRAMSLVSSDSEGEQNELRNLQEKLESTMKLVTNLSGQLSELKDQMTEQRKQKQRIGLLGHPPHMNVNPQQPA
UniProt Q9Z2L0: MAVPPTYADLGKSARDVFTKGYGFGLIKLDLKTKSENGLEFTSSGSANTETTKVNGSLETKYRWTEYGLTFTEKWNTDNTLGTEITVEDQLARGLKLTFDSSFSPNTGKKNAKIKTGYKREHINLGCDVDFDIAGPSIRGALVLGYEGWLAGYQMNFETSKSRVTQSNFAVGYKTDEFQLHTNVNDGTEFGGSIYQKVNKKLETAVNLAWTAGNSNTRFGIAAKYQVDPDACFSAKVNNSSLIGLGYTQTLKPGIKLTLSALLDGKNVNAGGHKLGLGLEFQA
UniProt P48721, residues 47-679: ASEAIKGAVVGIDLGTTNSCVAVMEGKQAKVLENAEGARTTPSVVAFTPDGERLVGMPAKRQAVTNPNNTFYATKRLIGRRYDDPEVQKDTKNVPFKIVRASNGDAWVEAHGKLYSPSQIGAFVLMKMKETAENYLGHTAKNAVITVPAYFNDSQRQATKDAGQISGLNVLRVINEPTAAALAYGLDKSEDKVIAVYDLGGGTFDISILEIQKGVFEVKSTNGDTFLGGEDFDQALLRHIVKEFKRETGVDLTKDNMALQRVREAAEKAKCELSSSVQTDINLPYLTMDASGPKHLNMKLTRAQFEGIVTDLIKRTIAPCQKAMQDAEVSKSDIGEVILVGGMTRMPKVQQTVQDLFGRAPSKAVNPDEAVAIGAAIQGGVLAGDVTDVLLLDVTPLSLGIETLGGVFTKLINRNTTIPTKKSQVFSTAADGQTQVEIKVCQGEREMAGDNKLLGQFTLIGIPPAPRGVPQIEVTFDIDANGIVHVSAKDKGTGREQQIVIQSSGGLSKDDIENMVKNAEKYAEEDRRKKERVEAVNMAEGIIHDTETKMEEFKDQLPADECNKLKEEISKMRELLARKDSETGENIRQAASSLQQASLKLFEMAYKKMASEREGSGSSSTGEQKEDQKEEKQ

Experiments:
[1] = target: inositol 1,4,5-trisphosphate receptor 1 (rat (endogenous in rat NP cells)) (UniProt P29994); test: co-IP; endogenous proteins in precleared lysates of rat NP cells (control or 1 MPa compression for 36 h); incubated overnight at 4°C with anti-IP3R1 or anti-VDAC1 antibody, protein A sepharose beads 2 h at 4°C; western blot
[2] = target: voltage-dependent anion-selective channel 1 (rat (endogenous in rat NP cells)) (UniProt Q9Z2L0); test: as above

glucose-regulated protein 75 (from UniProt P48721 47-679)
binding [1]: binds
binding [2]: binds

inositol 1,4,5-trisphosphate receptor 1 (from UniProt P29994 1-2750)
binding [2]: binds

voltage-dependent anion-selective channel 1 (from UniProt Q9Z2L0 1-283)
binding [1]: binds
